Reference: PMC7483467, “A small molecular compound CC1007 induces cross-lineage differentiation by inhibiting HDAC7 expression and HDAC7/MEF2C interaction in BCR-ABL1^− pre-B-ALL” (Cell Death & Disease, 2020)
Results are given in words; binding and its absence hold for the method and conditions named. In cells and extracts the contact can be indirect. Some binding calls cover weakened binding; strength is not graded here. Sequences can lack the tags named with a protein.

By UniProt entry, the sequences of proteins in these tests, tags left out.
UniProt Q13422: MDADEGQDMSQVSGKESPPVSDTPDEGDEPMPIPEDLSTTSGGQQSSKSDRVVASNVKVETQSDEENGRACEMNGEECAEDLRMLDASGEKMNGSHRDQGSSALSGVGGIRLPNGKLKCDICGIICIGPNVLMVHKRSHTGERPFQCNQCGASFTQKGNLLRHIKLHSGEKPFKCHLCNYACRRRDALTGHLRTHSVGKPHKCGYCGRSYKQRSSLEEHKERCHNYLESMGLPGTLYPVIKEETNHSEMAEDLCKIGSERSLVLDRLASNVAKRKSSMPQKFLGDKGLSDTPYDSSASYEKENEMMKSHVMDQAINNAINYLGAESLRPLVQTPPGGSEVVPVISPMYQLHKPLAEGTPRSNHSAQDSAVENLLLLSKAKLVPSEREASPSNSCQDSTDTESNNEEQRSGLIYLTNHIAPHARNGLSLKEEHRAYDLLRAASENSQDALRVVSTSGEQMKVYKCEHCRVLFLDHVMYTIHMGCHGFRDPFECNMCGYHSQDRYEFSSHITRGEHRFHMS
UniProt Q02548: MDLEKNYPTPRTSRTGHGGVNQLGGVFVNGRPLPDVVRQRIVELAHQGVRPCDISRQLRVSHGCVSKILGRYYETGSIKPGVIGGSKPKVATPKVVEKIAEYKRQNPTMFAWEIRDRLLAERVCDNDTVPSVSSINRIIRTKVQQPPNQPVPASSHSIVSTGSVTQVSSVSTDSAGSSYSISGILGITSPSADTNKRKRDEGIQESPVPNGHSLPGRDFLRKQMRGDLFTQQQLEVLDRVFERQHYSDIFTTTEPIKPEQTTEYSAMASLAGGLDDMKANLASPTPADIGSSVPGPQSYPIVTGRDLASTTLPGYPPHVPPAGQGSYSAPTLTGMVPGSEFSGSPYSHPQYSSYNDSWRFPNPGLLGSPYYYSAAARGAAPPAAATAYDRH
UniProt Q06413: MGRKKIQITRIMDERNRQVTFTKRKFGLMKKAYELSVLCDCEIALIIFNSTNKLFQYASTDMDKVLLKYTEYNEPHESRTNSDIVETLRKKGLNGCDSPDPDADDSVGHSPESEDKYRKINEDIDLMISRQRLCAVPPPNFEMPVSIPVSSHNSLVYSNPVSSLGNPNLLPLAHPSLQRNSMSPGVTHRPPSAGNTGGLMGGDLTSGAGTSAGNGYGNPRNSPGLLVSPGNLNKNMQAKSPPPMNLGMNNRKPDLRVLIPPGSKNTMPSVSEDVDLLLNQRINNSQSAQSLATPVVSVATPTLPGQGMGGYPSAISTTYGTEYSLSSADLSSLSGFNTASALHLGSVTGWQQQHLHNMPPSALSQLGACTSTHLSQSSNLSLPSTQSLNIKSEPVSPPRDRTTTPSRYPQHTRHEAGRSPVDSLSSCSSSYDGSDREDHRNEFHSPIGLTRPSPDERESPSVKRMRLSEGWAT

Assays:
[1] = target: T1, Histone deacetylase 7 (human (endogenous in BCR-ABL1- pre-B-ALL cells)) (UniProt Q8WUI4); assay: co-IP; supernatants of lysates of BCR-ABL1- pre-B-ALL cells (cell line and primary patient cells) incubated with anti-HDAC7 or anti-MEF2C antibody 1 h at 4 °C, then protein G/A agarose beads overnight at 4 °C; Western blot
T1 sequence: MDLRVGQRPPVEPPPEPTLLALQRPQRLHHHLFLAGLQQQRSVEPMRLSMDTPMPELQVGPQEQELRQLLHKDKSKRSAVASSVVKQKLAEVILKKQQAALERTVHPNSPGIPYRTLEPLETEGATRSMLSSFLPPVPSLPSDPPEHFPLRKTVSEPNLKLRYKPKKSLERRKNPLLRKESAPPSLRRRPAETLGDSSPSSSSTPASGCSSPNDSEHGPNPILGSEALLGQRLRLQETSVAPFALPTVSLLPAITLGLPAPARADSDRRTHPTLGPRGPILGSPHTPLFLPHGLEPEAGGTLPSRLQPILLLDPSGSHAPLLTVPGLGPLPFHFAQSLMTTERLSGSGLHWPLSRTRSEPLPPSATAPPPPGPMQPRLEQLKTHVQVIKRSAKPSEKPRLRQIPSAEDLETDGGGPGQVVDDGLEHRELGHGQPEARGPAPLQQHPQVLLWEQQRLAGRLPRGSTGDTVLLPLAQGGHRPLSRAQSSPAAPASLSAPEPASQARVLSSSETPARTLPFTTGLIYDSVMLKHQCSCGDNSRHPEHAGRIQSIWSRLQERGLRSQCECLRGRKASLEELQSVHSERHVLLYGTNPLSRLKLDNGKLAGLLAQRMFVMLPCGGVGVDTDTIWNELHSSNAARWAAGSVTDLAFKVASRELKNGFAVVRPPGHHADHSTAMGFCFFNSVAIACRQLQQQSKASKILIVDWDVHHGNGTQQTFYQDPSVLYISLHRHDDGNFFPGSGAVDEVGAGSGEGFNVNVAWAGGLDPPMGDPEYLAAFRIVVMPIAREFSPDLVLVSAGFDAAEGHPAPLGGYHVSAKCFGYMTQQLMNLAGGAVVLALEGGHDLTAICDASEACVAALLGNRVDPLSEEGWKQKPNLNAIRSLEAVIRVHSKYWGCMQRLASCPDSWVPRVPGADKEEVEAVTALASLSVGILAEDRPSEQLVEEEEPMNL

[2] = target: T1, Histone deacetylase 7 (human (endogenous in BCR-ABL1- pre-B-ALL cells)); assay: co-IP; Nalm-6 cells treated with 1.25 μM CC1007 for 7 days; co-immunoprecipitation on the third, fifth and seventh day; Western blot

binding [1]	binding [2]	Substance
no binding		IKAROS (from UniProt Q13422 1-519)
no binding		Pax5 (from UniProt Q02548 1-391)
binds	binds weakly	myocyte enhancer factor-2 (MEF2C) (from UniProt Q06413 1-473)
